# In the supplement of paper PMC3334620:
# The full ranking holds about 33,000 sequences; the median of “E-score (-0.5 to 0.5)” is about -0.0014, and the highest 2% start at about 0.25. The list shows a part of the results.
# Target: T1, Cad1 (UniProt P24813)
# T1 sequence: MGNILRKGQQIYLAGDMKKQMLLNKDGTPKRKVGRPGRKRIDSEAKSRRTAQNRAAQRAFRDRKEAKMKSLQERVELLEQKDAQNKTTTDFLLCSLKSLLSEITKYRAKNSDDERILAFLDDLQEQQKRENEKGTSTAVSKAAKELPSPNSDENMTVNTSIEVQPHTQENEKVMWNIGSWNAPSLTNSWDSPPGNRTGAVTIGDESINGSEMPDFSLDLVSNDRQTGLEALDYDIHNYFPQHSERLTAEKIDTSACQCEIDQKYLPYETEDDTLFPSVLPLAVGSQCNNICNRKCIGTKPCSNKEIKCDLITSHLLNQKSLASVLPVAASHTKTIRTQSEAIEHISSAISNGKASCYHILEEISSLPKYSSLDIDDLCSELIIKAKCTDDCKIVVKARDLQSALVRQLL
# Experiment: PBM E-score (8-mer binding enrichment) (E-score (-0.5 to 0.5)); higher = stronger / more preferred TF binding
# Settings: protein concentration: 100 nM; construct: GST-full length
# How it was run: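 Bound GST-tagged yeast transcription factors, applied at about 100-200 nM to double-stranded universal all-10-mer Agilent arrays, were detected with fluorescent anti-GST. Scans were normalised with masliner. A modified Wilcoxon-Mann-Whitney statistic, the E-score, was assigned to each ungapped eight-base word pooled with its reverse complement by the Universal PBM Analysis Suite.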
row,Sequence,PBM E-score
1,GCGTCCTA,0.139
2,AATACTGG,0.0126
3,CCCAGCAC,-0.127
4,CATACATC,0.143
5,GGGTACCC,-0.345
6,CAAAGCCA,-0.0984
7,AGGGGAGG,-0.0822
8,ATCCACAT,0.0877
9,AAACAGTG,0.0909
10,CGCGGTGC,0.0246
11,CTTCCTGA,0.0545
12,AGCGTCCA,0.0957
13,AATATTTG,0.255
14,CAACTTCG,0.0196
15,ACCCGACA,-0.0696
16,CCTATATA,0.0293
17,CGATTGAC,0.156
18,ATACGGGA,-0.193
19,AGACTCCG,-0.117
20,CAAGCTAA,-0.198
21,ACGCCAGA,-0.0478
22,AGTTTCGC,0.155
23,ACCTTAAC,0.0691
24,GGTGTATA,-0.161
25,GATGCCAC,-0.103

row,Sequence,PBM E-score
1,ACCAGCCC,-0.142
2,ATTAAGAG,-0.00018
3,AACCGTCC,-0.089
4,AGCGCGGG,0.158
5,CCGAAGCA,-0.106
6,CAACATTG,0.0388
7,CACCACAC,0.151
8,CGTGACAG,0.0078
9,ATCCGACA,0.0887
10,AGACGATG,0.104
11,GACTTTCC,-0.0901
12,CATGTAGA,0.0561
13,GCTGGATA,0.0235
14,ATCTGCAC,-0.00473
15,CCCGCTAA,-0.205
16,ACCAGGCC,0.212
17,TAAATCGA,0.16
18,GAGGAAAC,-0.0943
19,CAGTGGGG,-0.311
20,CTGCTGTC,-0.0811
21,ATCGAGTC,0.0129
22,AACAGATA,0.175
23,ACCTATAA,-0.067
24,GACTTACA,-0.0033
25,CACTAGTA,0.0511

row,Sequence,PBM E-score
1,GATGCCTA,-0.251
2,GCGGTGCC,-0.171
3,ATTAGTCG,0.205
4,CACATCAG,-0.153
5,GGGTAGTA,-0.184
6,AGTACGCC,-0.293
7,ACGGTCTC,-0.0778
8,CCTAACAC,0.191
9,CGGCTTAG,0.00179
10,ACTCCCTA,-0.107
11,AAGGACAA,0.0988
12,AATTTGTG,0.225
13,AAACTTCT,0.124
14,GGCAAGCC,-0.241
15,TAGCGCAA,0.207
16,GCGTATTA,0.153
17,GTAGCGCA,0.132
18,CCGGCTAA,0.0637
19,CTGGGACA,-0.173
20,AACGCACT,-0.0236
21,GACTAGCA,-0.128
22,AATCGAAT,0.246
23,GCCCAGGA,-0.086
24,GCGGCAGC,-0.0727
25,TAACTATA,0.0556

row,Sequence,PBM E-score
1,CTGCCGCA,-0.0367
2,CTATAATC,0.0668
3,ACGCTGTA,0.127
4,ACGTAGGA,-0.0696
5,CTTTAGAA,0.0493
6,GGCGAAAA,0.0511
7,AGCAGAGA,-0.107
8,ACGAAATG,-0.0259
9,AGCGCCGC,0.069
10,AATGCCGA,0.0466
11,CACCCGAA,0.142
12,GTCGTCGA,-0.119
13,AGAAGGCA,-0.243
14,CCGAGCAC,-0.0401
15,GCATTTAA,0.0157
16,CCATCGCG,0.229
17,GAAGTCCA,-0.121
18,GGGAGCGA,-0.188
19,GATCTAAA,0.0196
20,ATCACTCA,0.103
21,ACTAGAGG,-0.261
22,CCGAGTGA,0.0253
23,GATACTCA,0.0677
24,GACTCGCC,-0.296
25,CATCTGGG,-0.088

row,Sequence,PBM E-score
1,GCTTAGCC,-0.148
2,GGGATGCA,-0.167
3,ACAATCTA,-0.0578
4,AGACACGA,0.00772
5,ATCTACCG,0.119
6,TGACTGAA,-0.0472
7,AACTAGAG,-0.176
8,CGCACACC,0.0191
9,ACGGCTTA,0.152
10,AATTACAA,0.0797
11,AACATAAA,0.0346
12,GGGGACGA,-0.146
13,AGATTTAT,0.123
14,ACAACACG,0.109
15,CCATACGG,-0.0658
16,TTAGGCAA,-0.0641
17,GGCACTAA,0.108
18,CCGGGTCG,-0.00042
19,CGGCAAGA,0.126
20,ACGGTGCT,-0.19
21,CGACGCGA,-0.0839
22,GGCTCAGA,-0.117
23,GGCATCCC,-0.228
24,ACCGGATG,0.0332
25,AGGATGAT,0.105

# A few values from the list.
# ACGGTGCT – PBM E-score: -0.19
# GGGGACGA – PBM E-score: -0.146
# CCGGGTCG – PBM E-score: -0.00042
# CCATACGG – PBM E-score: -0.0658

# More records:

row,Sequence,PBM E-score
1,CGGCGCGA,0.203
2,AGCCCACT,-0.0992
3,ACCCGATA,-0.0464
4,CATCCAGA,-0.167
5,CCACACAA,-0.125
6,CGTGGTGA,-0.0563
7,ACTAGCAA,-0.00235
8,GTCGTAGA,0.0902
9,AGCCCCCT,-0.391
10,CTTGTAGC,0.0447
11,ACGCGGAC,-0.0578
12,GCTGGTAC,0.029
13,CCACGCCA,-0.0373
14,AGCTCCTA,-0.182
15,CTATGCGC,0.06
16,AGTAAGCA,0.241
17,CAACCTTC,-0.0566
18,GCTTTTCC,-0.0546
19,TCTCGCAA,-0.0928
20,GAGCATCA,-0.0201
21,GAGGGCTA,-0.142
22,TCTGATCA,0.182
23,AAAGTACA,-0.00569
24,GAGTGTTA,0.0874
25,ACTTTGAT,-0.0191

row,Sequence,PBM E-score
1,AAAAATAG,0.0801
2,AATGGTAC,0.0403
3,GGTGCTGA,-0.0741
4,AGCCGTCC,-0.0511
5,ACATCCAC,0.107
6,CCCTATCG,-0.124
7,ATTCCGAA,0.245
8,ATGGGAAC,-0.0325
9,CGTCCTTC,0.047
10,TCTAGCAA,-0.0137
11,AGAAAGGC,-0.131
12,CGTATAGA,0.0286
13,GCATCTAA,0.194
14,CACGGAAC,0.142
15,ACTTAGTC,-0.016
16,TATAGTGA,0.074
17,GTGTTAAC,0.168
18,TCGTAGCA,0.131
19,CGCCCACC,-0.0903
20,ACTTAAAT,-0.103
21,ACTGTAAG,0.167
22,AGCTTGTA,0.0676
